{"source": "patent US5270472A", "about": "“Alkanoyl L-carnitine amides with aminoacids and pharmaceutical compositions containing same for promoting regeneration of the nervous tissue, inhibiting neuronal degeneration, enhancing the process of learning and memory and for the treatment of coma” (Sigma-Tau Industrie Farmaceutiche Riunite S.p.A., priority 1991, dated 1993)", "origin": "cited, not measured here", "key": {"glucocorticoid receptors": {"tested_on": "glucocorticoid receptors", "details": "senescent rats; cited from earlier work"}, "NGFR": {"tested_on": "NGFR", "details": "aged rodents; cited from earlier work"}, "PC 12 cells": {"tested_on": "PC 12 cells", "details": "cited from earlier work"}}, "note": "For at least one compound, name, drawing or mass did not settle the structure."}
{"smiles": "CC(=O)O[C@H](CC(=O)[O-])C[N+](C)(C)C", "note": "[ACETYL L-CARNITINE, acetyl L-carnitine]", "values": [{"measurement": "behavioural performances related to the limbic system", "setting": "glucocorticoid receptors", "result": "improves the behavioural performances"}, {"measurement": "loss of glucocorticoid receptors in the hippocampus", "setting": "glucocorticoid receptors", "result": "prevents the loss of glucocorticoid receptors in the hippocampus"}, {"measurement": "loss of NGFR in the hippocampus and the basal forebrain", "setting": "NGFR", "result": "partially prevents the loss of NGFR"}, {"measurement": "NGFR synthesis", "setting": "PC 12 cells", "result": "stimulate NGFR synthesis"}, {"measurement": "enhancement of the action of NGF on PC 12 cells", "setting": "PC 12 cells; known for ALCAR®", "result": "enhance the action of NGF on PC 12 cells"}]}
